{"source": "PubChem BioAssay AID1259254 | NCATS – 2017", "test": "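Gene knock-downs that lead to re-replication, shown by excess G2 DNA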 (primary screen)", "cell system": "human HCT116 colorectal cancer cells", "reagents": "single siRNA against human genes", "timing": "3 days", "measurement": "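Nuclei stained with Hoechst and imaged; cell-cycle phase assigned by DNA content; G2 share scaled per plate, non-targeting siRNA 0%, GMNN siRNA 100%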", "scale": "G2 robust z-score and G2 cells, % of GMNN control: higher = more G2 cells, more excess DNA replication", "active means": "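Active siRNAs have a G2 robust z of 5 or more median absolute deviations over the median, which in these data means about 38% or higher of GMNN control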", "note": "Here is one part, drawn at random, of about 59,000 reagents tested. About 1,550 of all reagents (2.6%) count as active. 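G2 share is only a proxy for re-replication; each gene was hit by three separate siRNAs, and active genes were retested.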 Further read-outs or replicates are left out here. Not stated in the record: the amount of reagent."}
{"gene": "FOXD4L1", "PubChem SID": "SID160760841", "G2 robust z-score": 0.325, "G2 cells, % of GMNN control": 5.25, "Call": "inactive"}
{"gene": "FOXD4L1", "PubChem SID": "SID160760842", "G2 robust z-score": -0.284, "G2 cells, % of GMNN control": 0.971, "Call": "inactive"}
{"gene": "FOXD4L1", "PubChem SID": "SID160760843", "G2 robust z-score": -0.284, "G2 cells, % of GMNN control": 0.967, "Call": "inactive"}
{"gene": "DAPP1", "PubChem SID": "SID160732892", "G2 robust z-score": -0.328, "G2 cells, % of GMNN control": 0.663, "Call": "inactive"}
{"gene": "DAPP1", "PubChem SID": "SID160738319", "G2 robust z-score": -1.01, "G2 cells, % of GMNN control": -4.16, "Call": "inactive"}
{"gene": "DAPP1", "PubChem SID": "SID160738320", "G2 robust z-score": 1.05, "G2 cells, % of GMNN control": 10.3, "Call": "inactive"}
{"gene": "OFCC1", "PubChem SID": "SID160762666", "G2 robust z-score": -1.08, "G2 cells, % of GMNN control": -4.61, "Call": "inactive"}
{"gene": "OFCC1", "PubChem SID": "SID160762667", "G2 robust z-score": -0.889, "G2 cells, % of GMNN control": -3.29, "Call": "inactive"}
{"gene": "OFCC1", "PubChem SID": "SID160762668", "G2 robust z-score": -0.424, "G2 cells, % of GMNN control": -0.0181, "Call": "inactive"}
{"gene": "LRRC31", "PubChem SID": "SID160749422", "G2 robust z-score": 0.163, "G2 cells, % of GMNN control": 4.12, "Call": "inactive"}
{"gene": "LRRC31", "PubChem SID": "SID160749423", "G2 robust z-score": 1.53, "G2 cells, % of GMNN control": 13.7, "Call": "inactive"}
{"gene": "LRRC31", "PubChem SID": "SID160749424", "G2 robust z-score": -0.3, "G2 cells, % of GMNN control": 0.858, "Call": "inactive"}

A few values from the entries so far:
Result of FOXD4L1 [SID160760843] under “G2 cells, % of GMNN control”: 0.967
Under “G2 cells, % of GMNN control”, FOXD4L1 [SID160760841] shows 5.25
